Results as given in US20140094484A1, “SUSTAINED DELIVERY FORMULATIONS OF RAPAMYCIN COMPOUNDS” (QLT Inc., priority 2012, published 2014).
At least one structure is not confirmed: it was looked up by name or label, or the drawing left a doubt.

System: choroidal neovascularization (CNV)
Assay: Laser-induced CNV rat model, fluorescein angiography evaluation
Type: in vivo, Long Evans rats
Details: intravitreal injection immediately after laser photocoagulation
Method: Thermal laser infrared light (diode laser 810 nm) at 200 mW for 0.075 seconds was delivered to the fundus of Long Evans rats using a slit lamp and a slit lamp adaptor. A total of 6 lesions with 75 μm diameter were placed in a circular pattern surrounding the optic disc on the posterior pole.
Intravitreal injection was performed immediately after laser photocoagulation. Briefly, three days prior to the injection, 0.3% Ciloxan ointment was applied to the eye once daily. At the time of injection, the eye pocket was irrigated and the conjunctiva swabbed with 1.0% Betadine solution. A 30-gauge needle connected to a […], Hamilton syringe that contained 5 μL carboxymethylcellulose (CMC)-based Rapamycin suspension (0.5, 5, 10 or 40 mg/mL) or CMC vehicle alone was inserted 1 mm posterior to the corneoscleral limbus. The injection began when the bevel of the needle faced down and reached the vitreous about 1-2 mm in depth with the visual aid of a dissecting microscope. After injection, topical 0.3% Ciloxan ointment was applied to the eye once daily for 2 days.
FA was performed on the 14th day after intravitreal injection of Rapamycin. […] Photographs were taken with a fluorescence fundus camera at 1-10, 30, 60, 90, 180, and 300 sec after Diofluor 10% administration. The leakiness of CNV was assessed by two independent readers masked to the treatment.

In the case of CC1(C)O[C@@H]2C[C@H]3[C@@H]4CCC5=CC(=O)C=C[C@]5(C)[C@@]4(F)[C@@H](O)C[C@]3(C)[C@]2(C(=O)CO)O1 [triamcinolone acetonide (TA), triamcinolone acetonide], the “effect on CNV development” value was “prevented CNV development”.
